# Assay results published in the supplement of paper PMC4635364.
# Structures can show the parent of a compound that is named as a salt. This is one part of the list. Single values are uncertain here, since repeats match poorly.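 ReNCell VM, a human fetal ventral-midbrain neural progenitor line, was differentiated without mitogens. Blinded raters scored images stained for doublecortin (early neurons) or tyrosine hydroxylase (dopaminergic neurons) against untreated wells (0 = no change). Scores were averaged across repeats and both raters, and compounds averaging 2 or more were selected as hits for retesting.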
# Tests used:
# [1] = test system: ReNCell VM; assay: neuronal differentiation score (DCX+ cell fraction vs untreated, manual image score) (score (-3 to 3)); higher = more neuronal differentiation; conditions: 2 uM, 2 weeks
# [2] = test system: ReNCell VM; assay: dopaminergic neuron differentiation score (TH+ cell fraction vs untreated, manual image score) (score (0 to 3)); higher = more TH+ dopaminergic neuron differentiation; conditions: 2 uM, 4 weeks, BDNF 10 ng/ml + GDNF 10 ng/ml
smiles,measurement,setting,value
COc1ccccc1OCC(O)COC(N)=O (stereo unspecified),neuronal differentiation score,[1]; library: Spectrum,inactive: 0
same,dopaminergic neuron differentiation score,[2]; library: Spectrum,inactive: 0
NC(=O)CC[C@H](N)C(=O)O [L-Glutamine],neuronal differentiation score,[1]; library: LOPAC,inactive: 0
same,dopaminergic neuron differentiation score,[2]; library: LOPAC,inactive: 0
CCOC(=O)c1ccc(N)cc1,neuronal differentiation score,[1]; library: Spectrum,inactive: 0
same,dopaminergic neuron differentiation score,[2]; library: Spectrum,inactive: 0
CC(=O)OCC(CCn1cnc2cnc(N)nc21)COC(C)=O,neuronal differentiation score,[1]; library: Spectrum,inactive: -1
same,dopaminergic neuron differentiation score,[2]; library: Spectrum,inactive: 1
CCn1nc(C(=O)O)c(=O)c2cc3c(cc21)OCO3,neuronal differentiation score,[1]; library: Spectrum,inactive: 0
same,dopaminergic neuron differentiation score,[2]; library: Spectrum,inactive: 0
CN(C)C(=O)C(CCN1CCC(O)(c2ccc(Cl)cc2)CC1)(c1ccccc1)c1ccccc1,neuronal differentiation score,[1]; library: Spectrum,inactive: 0
same,dopaminergic neuron differentiation score,[2]; library: Spectrum,inactive: 0
CCC1=C[C@@H]2CN(C1)Cc1c([nH]c3ccccc13)[C@@](C(=O)OC)(c1cc3c(cc1OC)N(C)[C@H]1[C@@](O)(C(=O)OC)[C@H](OC(C)=O)[C@]4(CC)C=CCN5CC[C@]31[C@@H]54)C2,neuronal differentiation score,[1]; library: Spectrum,inactive: 0
same,dopaminergic neuron differentiation score,[2]; library: Spectrum,inactive: 0
COc1c2ccoc2cc2oc(=O)ccc12,neuronal differentiation score,[1]; library: Spectrum,inactive: 0
same,dopaminergic neuron differentiation score,[2]; library: Spectrum,inactive: 0
CC(C)(S)[C@@H](N)C(=O)O,neuronal differentiation score,[1]; library: Spectrum,inactive: 0
same,dopaminergic neuron differentiation score,[2]; library: Spectrum,inactive: 1
C=CC(C)(O)CCC1C(=C)CC(O)C2C(C)(C)CCCC12C (stereo unspecified),neuronal differentiation score,[1]; library: Spectrum,inactive: 0
same,dopaminergic neuron differentiation score,[2]; library: Spectrum,inactive: 0
CCN(CC)C(=O)Nc1ccc(OCC(O)CNC(C)(C)C)c(C(C)=O)c1 (stereo unspecified) [Celiprolol HCl],neuronal differentiation score,[1]; library: Prestwick,inactive: 0
same,dopaminergic neuron differentiation score,[2]; library: Prestwick,inactive: 0
C[C@@](Cc1ccc(O)c(O)c1)(NN)C(=O)O [Carbidopa],neuronal differentiation score,[1]; library: Prestwick,inactive: 0
same,dopaminergic neuron differentiation score,[2]; library: Prestwick,inactive: 0
Nc1nc(Cl)nc2c1ncn2[C@H]1C[C@H](O)[C@@H](CO)O1 [Cladribine],neuronal differentiation score,[1]; library: Prestwick,inactive: 0
same,dopaminergic neuron differentiation score,[2]; library: Prestwick,inactive: 0

# Given bar-delimited: part of the list above.
smiles | measurement | setting | value
CC(=O)OCC(CCn1cnc2cnc(N)nc21)COC(C)=O | neuronal differentiation score | [1]; library: Spectrum | inactive: -1
same | dopaminergic neuron differentiation score | [2]; library: Spectrum | inactive: 1
